Laboratory results published in patent US7678808B2, “5 HT receptor mediated neurogenesis” (BrainCells, Inc., priority 2006, dated 2010).

Test system: human neural stem cells (hNSCs)
Assay: Neuronal differentiation of human neural stem cells (TUJ-1 staining)
Type: cell-based
Details: Neural stem cell, agent alone, hNSC, data as % of neuronal positive control, basal media subtracted
From the text: Mitogen-free test media with a positive control was used for neuronal differentiation, and basal media without growth factors served as a negative control.
Mitogen-free test media with a positive control for neuronal differentiation was used, and basal media without growth factors served as a negative control.
Human neural stem cells (hNSCs) were isolated and grown in monolayer culture, plated, treated with varying concentrations of buspirone in the presence or absence of the melatonin agonist melatonin, and stained with TUJ-1 antibody for the detection of neuronal differentiation or GFAP antibody for the detection of astrocyte differentiation, as described above. Mitogen-free test media with a positive control for neuronal differentiation was used along with basal media without growth factors as a negative control.
Human neural stem cells (hNSCs) were isolated and grown in monolayer culture, plated, treated with varying concentrations of a 5-HT3 antagonist and stained with TUJ-1 antibody, as described above. […]
The presence of synergy was determined by use of a combination index (CI). […] The CI is a quantitative measure of the nature of drug interactions, comparing the EC50's of two compounds, when each is assayed alone, to the EC50 of each compound when assayed in combination. […]

EC50: 3.6 µM
Structure (SMILES): CN1CCN(C2=Nc3cc(Cl)ccc3Nc3ccccc32)CC1 [clozapine]
